Measurements published in article PMC6560169.
These are yes or no findings as the source states them, for the method shown. Some binding calls cover weakened binding; strength is not graded here.

Protein sequences, listed by entry. Tags and fused reporters are not part of them. Residues count along the entry.
UniProt Q9I6M8, residues 22-165: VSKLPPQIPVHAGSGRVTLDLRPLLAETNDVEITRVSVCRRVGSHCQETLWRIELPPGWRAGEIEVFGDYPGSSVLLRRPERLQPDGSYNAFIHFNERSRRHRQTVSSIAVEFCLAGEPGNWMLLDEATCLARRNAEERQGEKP

Key:
[1] = biological target: Tli3 (PA0261) after its signal sequence, fused downstream of the T18 or T25 domain (Pseudomonas aeruginosa) (UniProt Q9I6M8); assay: two-hybrid; bacterial adenylate cyclase two-hybrid (BACTH): fusions to T18 and T25 of the Bordetella adenylate cyclase in E. coli BTH101, spotted on X-gal/IPTG plates, 30°C
[2] = biological target: Tli3 (PA0261) after its signal sequence, fused upstream of the T18 or T25 domain (Pseudomonas aeruginosa) (UniProt Q9I6M8); assay: as above

Row | Substance | binding [1] | binding [2]
1 | Tli3 (PA0261) after its signal sequence, fused downstream of the T18 or T25 domain (from UniProt Q9I6M8 22-165) | binds | binds
2 | Tli3 (PA0261) after its signal sequence, fused upstream of the T18 or T25 domain (from UniProt Q9I6M8 22-165) | – | binds
